Values from PubChem BioAssay AID504786 (Drosophila RNAi Screening Center, 2011).

Purpose: 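Positive regulators of HIF-driven reporter output in Drosophila cells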 (primary screen)
Cells: Drosophila S2 cells with a stable HIF luciferase reporter
Reagent: long dsRNA against Drosophila genes, about 0.2 µg dsRNA per well of a 384-well plate
Time to read-out: three days of knock-down, then 20 h of DFO before reading
Challenge: desferrioxamine (DFO) at 100 µM, an iron chelator that mimics hypoxia, for 20 h
Measured: 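Firefly luciferase driven by the mouse ldh-a hypoxia-response element, measured after 20 h of 100 µM DFO; z-scores per plate, higher means more signal lost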
Direction: z-score: higher = stronger loss of HIF reporter signal
The screen tested about 21,000 reagents; below is an unselected part of those that have a named target and a result. 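Primary screen; positive scores mean lost reporter signal, so the sign may be inverted from the usual convention.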 Reagents against one gene are numbered here. A plus sign joins genes that one reagent is predicted to hit.

predicted target	reagent	z-score, replicate 1	z-score, replicate 2	z-score, replicate 3	z-score, replicate 4
Unc-115a (Uncoordinated 115a)	1	-0.2	-0.3		
Cyp4d20 (Cytochrome P450 4d20)	1	-0.3	0.1		
PpD5 (Protein phosphatase D5)	1	0	-0.1		
CG46491	1	-0.2	0.1		
CG46491	2	-0.2	-0.5		
rdhB (retinol dehydrogenase B)	1	-0.3	1.7		
f (forked)	1	0	0.3		
f (forked)	2	-0.1	-0.3		
f (forked)	3	-0.1	0.4		
fkh (fork head)	1	-0.4	0		
CG17002	1	0	-0.2		
THG (tRNA-histidine guanylyltransferase)	1	-0.1	-0.5		
CG14540	1	-0.6	-0.9		
Cks85A (Cyclin-dependent kinase subunit 85A)	1	-0.1	-0.5		
CG3777	1	-0.7	-0.6		
Ir75b (Ionotropic receptor 75b)	1	-0.2	-0.6		
Nepl10 (Neprilysin-like 10)	1	-0.3	-0.3		
CG18731	1	-0.4	-0.5		
ckd (cracked)	1	-0.3	-0.5		
Obp56g (Odorant-binding protein 56g)	1	-0.1	-0.4		
Nlg2 (Neuroligin 2)	1	-0.4	-0.6		
Letm1	1	1.9	1.4		
Vha16-5 (Vacuolar H[+] ATPase 16kD subunit 5)	1	-0.3	-0.4		
orb2	1	-0.1	-0.1		
orb2	2	-0.3	0		
orb2	3	-0.1	-0.3		
CG31275	1	-0.5	-0.5		
TpnC25D (Troponin C at 25D)	1	-0.2	-0.5		
mmm (missing minor mitochondria)	1	0	0		
CG4884	1	-0.2	0.2		
Aasdh (Aminoadipate-semialdehyde dehydrogenase)	1	-0.3	-0.5		
g (garnet)	1	0	0.5		
vri (vrille)	1	4.6	0.6		
Nse4 (Non-SMC element 4)	1	-0.2	-0.3		
Ir7c (Ionotropic receptor 7c)	1	0	0.7		
Amy-p (Amylase proximal)	1	-0.2	-0.4		
Zpr1	1	-0.3	-0.3		
dbr (debra)	1	-0.1	-0.5		
COX7AL (Cytochrome c oxidase subunit 7A-like)	1	-0.3	0.1		
syd (sunday driver)	1	-0.1	-0.5		
KaiR1D (Kainate-type ionotropic glutamate receptor subunit 1D)	1	0.3	-0.3		
CG12523	1	-0.4	-0.5	0.5	-0.2
fit (female-specific independent of transformer)	1	0.1	0		
CG1354	1	-0.3	1		
CG43658	1	-0.3	0.3		
Tango4 (Transport and Golgi organization 4)	1	4.3	3.9		
Zip71B (Zinc/iron regulated transporter-related protein 71B)	1	-0.3	-0.6		
Acsx1R (Acyl-CoA synthetase X1 R)	1	-1.3	-0.5		
GNBP3 (Gram-negative bacteria binding protein 3)	1	-0.4	-0.1		
Rbfox1 (RNA-binding Fox protein 1)	1	-0.4	-0.1	-0.6	-0.3
Rbfox1 (RNA-binding Fox protein 1)	2	-0.3	-0.9	5	1.8
Rbfox1 (RNA-binding Fox protein 1)	3	1.2	-0.1		
Try29F (Trypsin 29F)	1	-0.3	-0.4		
SCOT (Succinyl-CoA:3-ketoacid CoA transferase)	1	-0.2	-0.4		
CG42755 (retired record)	1	-0.4	-0.1		
CG42755 (retired record)	2	-0.5	-0.1		
Aladin	1	-0.4	-0.6		
CG15254	1	-0.4	-0.5	0.1	0.1
Cp19 (Chorion protein 19)	1	-0.3	-0.4		
CG12206	1	-0.1	0.8		
Graf (GTPase regulator associated with FAK)	1	-0.3	-0.1		
l(3)87Df (lethal (3) 87Df)	1	0.1	-0.5		
Btnd (Biotinidase)	1	-0.3	0.1		
Rox8	1	-0.2	-0.9		
CG17199	1	0.1	0.2		
CG13028	1	-0.3	0.5		
Clic (Chloride intracellular channel)	1	-0.3	-0.1		
Dsor1 (Downstream of raf1)	1	2	2.3		
Neto (Neuropilin and tolloid-like)	1	-0.4	-0.3		
Neto (Neuropilin and tolloid-like)	2	-0.3	-0.7		
Neto (Neuropilin and tolloid-like)	3	-0.1	0		
Neto (Neuropilin and tolloid-like)	4	-0.4	0		
CG30325	1	-0.4	-0.2		
Obp50e (Odorant-binding protein 50e)	1	-0.4	0		
Mur2B (Mucin related 2B)	1	-0.3	-0.1		
Mur2B (Mucin related 2B)	2	0.6	-0.1		
tctn + B9d2	1	-0.3	-0.2		
CG6403	1	-0.4	-0.7		
pio (piopio)	1	-0.1	0		
Obp28a (Odorant-binding protein 28a)	1	-0.2	0.1		
Pp2C1 (Protein phosphatase 2C)	1	0	0.2		
Obp99d (Odorant-binding protein 99d)	1	-0.4	0.9		
CG3277	1	-0.2	-0.3		

In a second layout: 7 of the entries above.
{"predicted target":"Unc-115a (Uncoordinated 115a)","reagent":1,"z-score, replicate 1":-0.2,"z-score, replicate 2":-0.3}
{"predicted target":"Cyp4d20 (Cytochrome P450 4d20)","reagent":1,"z-score, replicate 1":-0.3,"z-score, replicate 2":0.1}
{"predicted target":"PpD5 (Protein phosphatase D5)","reagent":1,"z-score, replicate 1":0,"z-score, replicate 2":-0.1}
{"predicted target":"CG46491","reagent":1,"z-score, replicate 1":-0.2,"z-score, replicate 2":0.1}
{"predicted target":"CG46491","reagent":2,"z-score, replicate 1":-0.2,"z-score, replicate 2":-0.5}
{"predicted target":"rdhB (retinol dehydrogenase B)","reagent":1,"z-score, replicate 1":-0.3,"z-score, replicate 2":1.7}
{"predicted target":"f (forked)","reagent":1,"z-score, replicate 1":0,"z-score, replicate 2":0.3}
